No constants are given. Whether binding was seen depends on the method and setting. In cells and extracts the contact can be indirect. Some results given as binding are weak or reduced against the parent protein; the word gives no strength. Sequences can lack the tags named with a protein.
T1: V5/His6-tagged SMS1ΔSAM (human) (UniProt Q86VZ5)
T1 sequence: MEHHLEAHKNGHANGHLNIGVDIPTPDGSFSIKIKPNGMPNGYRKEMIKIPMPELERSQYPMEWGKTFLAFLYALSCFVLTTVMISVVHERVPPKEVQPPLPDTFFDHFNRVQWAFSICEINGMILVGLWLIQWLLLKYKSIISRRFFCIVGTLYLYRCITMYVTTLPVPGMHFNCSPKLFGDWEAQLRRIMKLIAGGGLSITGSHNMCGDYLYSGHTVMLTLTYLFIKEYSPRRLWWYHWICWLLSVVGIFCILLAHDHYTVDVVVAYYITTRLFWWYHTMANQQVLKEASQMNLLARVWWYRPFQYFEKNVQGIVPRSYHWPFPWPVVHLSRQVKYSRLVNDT

T2: V5/His6-tagged SMS1 (human) (UniProt Q86VZ5)
T2 sequence: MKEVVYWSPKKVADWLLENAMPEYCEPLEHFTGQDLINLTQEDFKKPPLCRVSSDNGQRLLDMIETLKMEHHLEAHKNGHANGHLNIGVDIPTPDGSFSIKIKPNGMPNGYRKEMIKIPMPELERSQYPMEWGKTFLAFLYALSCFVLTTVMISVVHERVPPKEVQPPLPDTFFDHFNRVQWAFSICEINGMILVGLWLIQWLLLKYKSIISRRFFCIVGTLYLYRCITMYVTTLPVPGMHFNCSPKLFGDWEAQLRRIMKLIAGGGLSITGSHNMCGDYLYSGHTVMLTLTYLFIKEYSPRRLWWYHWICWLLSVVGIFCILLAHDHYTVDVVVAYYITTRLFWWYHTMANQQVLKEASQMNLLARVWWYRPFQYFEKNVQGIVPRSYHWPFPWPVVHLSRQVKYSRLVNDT

T3: V5/His6-tagged SMSrΔSAM (human) (UniProt Q96LT4)
T3 sequence: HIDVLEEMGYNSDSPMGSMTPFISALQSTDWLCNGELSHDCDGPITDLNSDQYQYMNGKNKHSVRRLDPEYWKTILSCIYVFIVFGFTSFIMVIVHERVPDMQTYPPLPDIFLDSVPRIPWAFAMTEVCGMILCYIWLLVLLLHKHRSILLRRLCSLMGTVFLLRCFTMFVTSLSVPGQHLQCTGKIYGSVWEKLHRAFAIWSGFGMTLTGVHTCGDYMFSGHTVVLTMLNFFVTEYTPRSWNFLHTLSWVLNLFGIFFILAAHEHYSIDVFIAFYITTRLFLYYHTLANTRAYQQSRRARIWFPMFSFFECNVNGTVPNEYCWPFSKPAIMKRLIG

T4: V5/His6-tagged SMSrΔSAM-KKSA (human) (UniProt Q96LT4)
T4 sequence: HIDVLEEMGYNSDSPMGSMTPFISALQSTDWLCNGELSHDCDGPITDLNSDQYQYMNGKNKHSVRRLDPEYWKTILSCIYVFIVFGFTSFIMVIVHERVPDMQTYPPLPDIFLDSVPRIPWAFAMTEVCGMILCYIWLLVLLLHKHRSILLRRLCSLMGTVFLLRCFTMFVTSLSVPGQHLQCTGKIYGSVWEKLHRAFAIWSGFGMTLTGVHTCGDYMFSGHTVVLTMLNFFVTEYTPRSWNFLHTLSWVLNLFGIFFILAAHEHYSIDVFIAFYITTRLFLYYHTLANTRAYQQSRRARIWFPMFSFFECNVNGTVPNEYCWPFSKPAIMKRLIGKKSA

T5: V5/His6-tagged SMSr (human, UniProt Q96LT4 1-415)
T5 construct: SMSr (SAMD8), ceramide phosphoethanolamine synthase, human, UniProt Q96LT4; the cDNA was PCR amplified and cloned with a C-terminal V5/His6 tag; also called SMSr-V5; SAMD8; source: HeLa, transfected (pcDNA3.1/V5-His TOPO), in detergent extract; not shown: V5, C-terminal, kept; His6, C-terminal, kept
T5 sequence (looked up): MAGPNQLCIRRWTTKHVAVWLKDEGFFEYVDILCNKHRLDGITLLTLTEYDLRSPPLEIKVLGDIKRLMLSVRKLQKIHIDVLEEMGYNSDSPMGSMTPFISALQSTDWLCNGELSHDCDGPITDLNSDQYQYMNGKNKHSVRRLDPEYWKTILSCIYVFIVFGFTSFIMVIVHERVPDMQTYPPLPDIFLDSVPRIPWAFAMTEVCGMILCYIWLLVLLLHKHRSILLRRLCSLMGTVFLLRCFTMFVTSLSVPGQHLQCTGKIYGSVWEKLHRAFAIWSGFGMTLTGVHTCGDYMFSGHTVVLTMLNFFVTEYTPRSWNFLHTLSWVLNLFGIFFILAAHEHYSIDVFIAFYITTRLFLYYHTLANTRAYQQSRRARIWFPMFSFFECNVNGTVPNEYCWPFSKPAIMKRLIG


Tests used:
[1] = target: T1, V5/His6-tagged SMS1ΔSAM (human); assay: co-IP; detergent extracts of HeLa cells co-transfected with HA-tagged and V5/His6-tagged constructs; anti-V5 immunoprecipitation, immunoblot with anti-V5 and anti-HA; non-reducing SDS-PAGE; no NEM named
[2] = target: T2, V5/His6-tagged SMS1 (human); assay: as above
[3] = target: T3, V5/His6-tagged SMSrΔSAM (human); assay: as above
[4] = target: T4, V5/His6-tagged SMSrΔSAM-KKSA (human); assay: as above
V5/His6-tagged SMSr = target: T5, V5/His6-tagged SMSr; assay: co-IP; HeLa (wild-type or SMSr-/-) cells co-transfected with V5/His6- and HA-tagged constructs, solubilized with detergent with 10 mM NEM; anti-V5 immunoprecipitation, immunoblot with anti-V5 and anti-HA

Row | binding [1] | binding [2] | binding [3] | binding [4] | binding (V5/His6-tagged SMSr) | Binder
1 | binds | binds |  |  |  | HA-tagged SMS1 (enzyme, UniProt Q86VZ5 1-413) MKEVVYWSPKKVADWLLENAMPEYCEPLEHFTGQDLINLTQEDFKKPPLCRVSSDNGQRLLDMIETLKMEHHLEAHKNGHANGHLNIGVDIPTPDGSFSIKIKPNGMPNGYRKEMIKIPMPELERSQYPMEWGKTFLAFLYALSCFVLTTVMISVVHERVPPKEVQPPLPDTFFDHFNRVQWAFSICEINGMILVGLWLIQWLLLKYKSIISRRFFCIVGTLYLYRCITMYVTTLPVPGMHFNCSPKLFGDWEAQLRRIMKLIAGGGLSITGSHNMCGDYLYSGHTVMLTLTYLFIKEYSPRRLWWYHWICWLLSVVGIFCILLAHDHYTVDVVVAYYITTRLFWWYHTMANQQVLKEASQMNLLARVWWYRPFQYFEKNVQGIVPRSYHWPFPWPVVHLSRQVKYSRLVNDT
2 |  |  | no binding | no binding | binds | HA-tagged SMSr (enzyme, human, UniProt Q96LT4 1-415, looked up, SMSr (SAMD8), ceramide phosphoethanolamine synthase, human, UniProt Q96LT4; also called SMSr-HA; full-length SMSr-HA; source: HeLa (wild-type or SMSr-/-), transfected, in detergent extract; not shown: HA, C-terminal, kept) MAGPNQLCIRRWTTKHVAVWLKDEGFFEYVDILCNKHRLDGITLLTLTEYDLRSPPLEIKVLGDIKRLMLSVRKLQKIHIDVLEEMGYNSDSPMGSMTPFISALQSTDWLCNGELSHDCDGPITDLNSDQYQYMNGKNKHSVRRLDPEYWKTILSCIYVFIVFGFTSFIMVIVHERVPDMQTYPPLPDIFLDSVPRIPWAFAMTEVCGMILCYIWLLVLLLHKHRSILLRRLCSLMGTVFLLRCFTMFVTSLSVPGQHLQCTGKIYGSVWEKLHRAFAIWSGFGMTLTGVHTCGDYMFSGHTVVLTMLNFFVTEYTPRSWNFLHTLSWVLNLFGIFFILAAHEHYSIDVFIAFYITTRLFLYYHTLANTRAYQQSRRARIWFPMFSFFECNVNGTVPNEYCWPFSKPAIMKRLIG

From paper PMC5264588, “ER residency of the ceramide phosphoethanolamine synthase SMSr relies on homotypic oligomerization mediated by its SAM domain” (Scientific Reports, 2017)
